This note sets out measurements from the supplement of paper PMC10849652.

Protein sequences, listed by entry. Tags and fused reporters are not part of them. Lines headed by an entry give the natural chain unless they say otherwise; changes in a name come on top.
UniProt P08238, whole entry, looked up: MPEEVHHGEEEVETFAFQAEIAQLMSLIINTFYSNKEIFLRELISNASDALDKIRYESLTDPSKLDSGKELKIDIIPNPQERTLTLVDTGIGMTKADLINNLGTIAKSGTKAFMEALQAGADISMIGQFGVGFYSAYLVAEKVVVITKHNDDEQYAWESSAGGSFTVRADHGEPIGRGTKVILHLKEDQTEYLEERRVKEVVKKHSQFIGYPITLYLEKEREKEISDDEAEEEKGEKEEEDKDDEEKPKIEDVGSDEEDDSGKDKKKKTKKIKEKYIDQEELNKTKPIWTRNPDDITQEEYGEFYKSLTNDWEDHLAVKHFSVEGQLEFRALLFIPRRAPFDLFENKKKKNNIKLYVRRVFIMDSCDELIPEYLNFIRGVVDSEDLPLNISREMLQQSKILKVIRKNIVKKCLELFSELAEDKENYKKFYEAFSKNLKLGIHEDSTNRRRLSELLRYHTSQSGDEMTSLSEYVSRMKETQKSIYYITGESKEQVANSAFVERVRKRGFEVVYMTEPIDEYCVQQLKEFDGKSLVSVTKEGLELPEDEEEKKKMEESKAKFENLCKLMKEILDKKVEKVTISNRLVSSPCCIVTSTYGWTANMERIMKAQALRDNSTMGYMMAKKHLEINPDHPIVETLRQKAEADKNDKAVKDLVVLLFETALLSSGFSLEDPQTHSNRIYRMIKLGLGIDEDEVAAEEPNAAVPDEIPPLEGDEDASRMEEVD
UniProt O43464: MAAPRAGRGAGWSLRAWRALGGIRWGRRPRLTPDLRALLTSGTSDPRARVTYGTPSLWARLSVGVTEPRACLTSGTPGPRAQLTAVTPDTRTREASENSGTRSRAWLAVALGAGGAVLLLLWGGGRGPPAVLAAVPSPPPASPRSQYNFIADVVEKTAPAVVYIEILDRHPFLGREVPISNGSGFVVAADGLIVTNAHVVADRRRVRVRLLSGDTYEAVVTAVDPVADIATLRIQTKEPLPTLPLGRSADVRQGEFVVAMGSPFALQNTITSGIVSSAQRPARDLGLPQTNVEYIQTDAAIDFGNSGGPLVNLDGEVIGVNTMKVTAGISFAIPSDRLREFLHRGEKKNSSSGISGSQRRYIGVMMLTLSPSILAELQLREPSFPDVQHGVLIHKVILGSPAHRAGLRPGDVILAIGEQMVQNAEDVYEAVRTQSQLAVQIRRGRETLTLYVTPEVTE
UniProt P09429: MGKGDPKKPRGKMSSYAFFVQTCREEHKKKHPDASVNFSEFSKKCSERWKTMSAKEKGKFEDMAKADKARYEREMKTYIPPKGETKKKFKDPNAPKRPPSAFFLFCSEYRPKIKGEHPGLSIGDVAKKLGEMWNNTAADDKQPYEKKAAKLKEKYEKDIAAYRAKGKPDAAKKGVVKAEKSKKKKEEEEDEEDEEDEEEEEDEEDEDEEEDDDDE
UniProt O43719: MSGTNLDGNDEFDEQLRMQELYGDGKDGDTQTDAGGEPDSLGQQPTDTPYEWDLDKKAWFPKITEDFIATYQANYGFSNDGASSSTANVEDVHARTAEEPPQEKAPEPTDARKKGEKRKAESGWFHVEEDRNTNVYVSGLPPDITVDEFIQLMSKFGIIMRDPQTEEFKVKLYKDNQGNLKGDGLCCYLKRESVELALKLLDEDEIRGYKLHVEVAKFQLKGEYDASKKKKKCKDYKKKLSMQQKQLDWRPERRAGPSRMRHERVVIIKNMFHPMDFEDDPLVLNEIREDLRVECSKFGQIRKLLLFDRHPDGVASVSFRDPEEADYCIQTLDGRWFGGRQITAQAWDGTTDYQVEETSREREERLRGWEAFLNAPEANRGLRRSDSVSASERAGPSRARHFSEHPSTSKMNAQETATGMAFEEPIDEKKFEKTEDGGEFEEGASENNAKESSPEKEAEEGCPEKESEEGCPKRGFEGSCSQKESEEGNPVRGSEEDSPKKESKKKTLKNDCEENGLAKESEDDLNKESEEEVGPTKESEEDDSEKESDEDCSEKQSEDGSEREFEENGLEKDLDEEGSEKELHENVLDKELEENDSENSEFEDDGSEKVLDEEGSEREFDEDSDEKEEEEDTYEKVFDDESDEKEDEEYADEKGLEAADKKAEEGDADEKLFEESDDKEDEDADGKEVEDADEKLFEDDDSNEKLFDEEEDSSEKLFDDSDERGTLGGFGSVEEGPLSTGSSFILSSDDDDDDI
UniProt P14625, whole entry, looked up: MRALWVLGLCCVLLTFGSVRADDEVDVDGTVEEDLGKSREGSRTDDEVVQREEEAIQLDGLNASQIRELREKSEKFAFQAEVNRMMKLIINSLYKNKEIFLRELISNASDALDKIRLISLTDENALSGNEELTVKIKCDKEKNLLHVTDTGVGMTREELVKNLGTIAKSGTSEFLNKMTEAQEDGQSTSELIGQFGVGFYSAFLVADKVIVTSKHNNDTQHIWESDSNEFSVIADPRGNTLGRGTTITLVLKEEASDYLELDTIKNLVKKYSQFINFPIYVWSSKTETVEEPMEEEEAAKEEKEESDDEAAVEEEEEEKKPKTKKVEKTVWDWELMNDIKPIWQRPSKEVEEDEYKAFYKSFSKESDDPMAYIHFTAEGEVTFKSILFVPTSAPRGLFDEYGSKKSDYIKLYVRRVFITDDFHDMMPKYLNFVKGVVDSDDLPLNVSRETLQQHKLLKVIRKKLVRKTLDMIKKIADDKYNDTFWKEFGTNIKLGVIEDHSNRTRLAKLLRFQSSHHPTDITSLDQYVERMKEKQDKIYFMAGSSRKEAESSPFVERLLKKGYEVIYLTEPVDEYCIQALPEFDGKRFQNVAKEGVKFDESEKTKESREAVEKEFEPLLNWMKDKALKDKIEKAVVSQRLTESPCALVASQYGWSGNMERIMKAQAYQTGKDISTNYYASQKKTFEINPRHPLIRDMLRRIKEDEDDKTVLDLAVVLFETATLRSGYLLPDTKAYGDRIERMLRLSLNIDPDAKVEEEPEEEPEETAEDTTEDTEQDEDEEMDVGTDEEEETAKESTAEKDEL
UniProt Q9P2D0: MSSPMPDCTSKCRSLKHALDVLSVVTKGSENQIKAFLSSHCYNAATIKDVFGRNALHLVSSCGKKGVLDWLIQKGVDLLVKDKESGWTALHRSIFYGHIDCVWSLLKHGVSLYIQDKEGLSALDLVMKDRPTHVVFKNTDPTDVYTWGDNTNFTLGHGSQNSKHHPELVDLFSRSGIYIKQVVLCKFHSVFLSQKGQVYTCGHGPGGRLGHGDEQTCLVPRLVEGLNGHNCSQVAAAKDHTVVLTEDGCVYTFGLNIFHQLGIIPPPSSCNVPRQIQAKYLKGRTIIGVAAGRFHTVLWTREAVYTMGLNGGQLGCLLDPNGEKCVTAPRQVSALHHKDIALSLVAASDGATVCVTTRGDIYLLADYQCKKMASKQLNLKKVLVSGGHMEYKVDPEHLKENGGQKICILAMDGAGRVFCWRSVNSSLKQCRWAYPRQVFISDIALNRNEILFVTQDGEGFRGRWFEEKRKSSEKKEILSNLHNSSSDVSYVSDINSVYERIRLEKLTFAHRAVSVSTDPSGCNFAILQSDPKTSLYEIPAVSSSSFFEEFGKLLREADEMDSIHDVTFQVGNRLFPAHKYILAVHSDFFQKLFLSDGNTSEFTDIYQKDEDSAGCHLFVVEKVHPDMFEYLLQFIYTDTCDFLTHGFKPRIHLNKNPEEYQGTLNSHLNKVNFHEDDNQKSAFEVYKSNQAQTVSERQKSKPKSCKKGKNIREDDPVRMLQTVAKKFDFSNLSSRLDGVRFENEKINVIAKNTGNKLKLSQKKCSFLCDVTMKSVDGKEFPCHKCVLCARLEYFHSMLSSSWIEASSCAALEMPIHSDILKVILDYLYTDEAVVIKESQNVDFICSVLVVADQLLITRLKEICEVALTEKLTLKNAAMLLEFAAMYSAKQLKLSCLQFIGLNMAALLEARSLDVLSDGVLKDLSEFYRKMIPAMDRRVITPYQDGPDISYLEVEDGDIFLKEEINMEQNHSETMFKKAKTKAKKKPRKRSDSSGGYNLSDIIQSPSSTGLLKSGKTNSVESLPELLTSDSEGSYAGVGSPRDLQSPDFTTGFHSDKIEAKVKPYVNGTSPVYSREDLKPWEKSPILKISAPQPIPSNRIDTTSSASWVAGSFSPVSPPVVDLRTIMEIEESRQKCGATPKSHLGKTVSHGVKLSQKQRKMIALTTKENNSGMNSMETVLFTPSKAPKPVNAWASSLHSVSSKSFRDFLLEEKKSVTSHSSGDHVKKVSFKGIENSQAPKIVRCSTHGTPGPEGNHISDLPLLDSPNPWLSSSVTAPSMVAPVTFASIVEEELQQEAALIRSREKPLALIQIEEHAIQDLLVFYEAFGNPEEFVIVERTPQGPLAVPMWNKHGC
UniProt P52272: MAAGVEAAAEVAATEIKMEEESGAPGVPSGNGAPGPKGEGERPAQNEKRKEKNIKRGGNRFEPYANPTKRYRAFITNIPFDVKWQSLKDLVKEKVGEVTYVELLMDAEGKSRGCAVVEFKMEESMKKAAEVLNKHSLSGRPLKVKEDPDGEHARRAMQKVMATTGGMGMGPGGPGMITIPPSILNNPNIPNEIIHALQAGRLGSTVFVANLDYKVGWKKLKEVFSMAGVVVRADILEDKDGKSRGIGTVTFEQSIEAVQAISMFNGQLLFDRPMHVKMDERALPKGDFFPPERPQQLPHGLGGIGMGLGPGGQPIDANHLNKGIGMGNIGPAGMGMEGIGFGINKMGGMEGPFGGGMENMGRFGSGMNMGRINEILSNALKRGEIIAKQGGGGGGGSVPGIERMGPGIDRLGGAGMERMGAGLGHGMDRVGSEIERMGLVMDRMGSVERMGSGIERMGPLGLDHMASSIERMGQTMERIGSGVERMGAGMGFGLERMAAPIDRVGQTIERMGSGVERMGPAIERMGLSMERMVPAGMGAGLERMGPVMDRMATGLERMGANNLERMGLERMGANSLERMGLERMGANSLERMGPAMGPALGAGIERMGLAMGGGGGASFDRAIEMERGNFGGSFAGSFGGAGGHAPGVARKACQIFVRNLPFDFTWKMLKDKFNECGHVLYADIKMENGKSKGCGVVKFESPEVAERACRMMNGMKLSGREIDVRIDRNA
UniProt P52789: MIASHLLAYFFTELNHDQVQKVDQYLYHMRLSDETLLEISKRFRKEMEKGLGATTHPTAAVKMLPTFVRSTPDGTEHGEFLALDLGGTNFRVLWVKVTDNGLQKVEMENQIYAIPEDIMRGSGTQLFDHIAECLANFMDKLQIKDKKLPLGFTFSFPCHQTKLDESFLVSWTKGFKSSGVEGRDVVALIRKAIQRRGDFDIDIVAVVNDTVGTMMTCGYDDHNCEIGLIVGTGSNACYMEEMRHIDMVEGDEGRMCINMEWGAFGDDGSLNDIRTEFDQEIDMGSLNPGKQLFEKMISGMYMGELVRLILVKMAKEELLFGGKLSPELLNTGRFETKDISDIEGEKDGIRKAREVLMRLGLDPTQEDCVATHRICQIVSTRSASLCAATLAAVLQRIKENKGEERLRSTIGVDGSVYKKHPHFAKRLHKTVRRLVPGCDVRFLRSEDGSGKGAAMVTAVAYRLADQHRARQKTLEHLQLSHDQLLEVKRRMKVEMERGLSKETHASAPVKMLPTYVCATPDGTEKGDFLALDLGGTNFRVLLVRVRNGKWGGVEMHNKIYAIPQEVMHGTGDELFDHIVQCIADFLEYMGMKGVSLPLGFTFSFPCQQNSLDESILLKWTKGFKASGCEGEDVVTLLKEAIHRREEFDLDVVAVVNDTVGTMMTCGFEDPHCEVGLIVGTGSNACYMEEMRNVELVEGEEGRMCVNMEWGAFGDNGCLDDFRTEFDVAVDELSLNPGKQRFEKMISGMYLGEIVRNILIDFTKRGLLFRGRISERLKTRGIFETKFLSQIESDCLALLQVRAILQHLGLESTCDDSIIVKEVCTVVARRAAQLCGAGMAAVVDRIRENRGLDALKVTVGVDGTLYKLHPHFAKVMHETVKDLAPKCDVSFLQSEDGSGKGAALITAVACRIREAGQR
UniProt P0DMV8, whole entry, looked up: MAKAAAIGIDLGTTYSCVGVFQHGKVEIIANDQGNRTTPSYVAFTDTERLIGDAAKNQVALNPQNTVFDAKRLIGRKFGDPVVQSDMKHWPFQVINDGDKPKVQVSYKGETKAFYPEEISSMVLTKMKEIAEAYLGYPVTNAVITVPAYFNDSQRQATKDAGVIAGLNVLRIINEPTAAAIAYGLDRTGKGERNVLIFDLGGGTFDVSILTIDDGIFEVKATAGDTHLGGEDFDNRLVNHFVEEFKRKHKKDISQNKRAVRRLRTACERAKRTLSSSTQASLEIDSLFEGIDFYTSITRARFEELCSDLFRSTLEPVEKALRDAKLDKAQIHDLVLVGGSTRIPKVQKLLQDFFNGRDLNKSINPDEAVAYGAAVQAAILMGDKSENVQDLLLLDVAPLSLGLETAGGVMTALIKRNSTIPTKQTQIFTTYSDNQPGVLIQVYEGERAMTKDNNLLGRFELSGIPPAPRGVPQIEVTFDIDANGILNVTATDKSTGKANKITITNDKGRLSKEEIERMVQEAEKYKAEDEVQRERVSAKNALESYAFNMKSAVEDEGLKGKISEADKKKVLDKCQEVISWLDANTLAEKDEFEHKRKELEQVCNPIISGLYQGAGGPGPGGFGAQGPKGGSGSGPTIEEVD

The other results are listed elsewhere or left out.

Compound in one experiment: Cc1ccc(NC(=O)c2ccc(CN3CC[C@H](N(C)C)C3)c(C(F)(F)F)c2)cc1Nc1nccc(-c2cncnc2)n1 [bafetinib]
In words: log2 fold change, soluble protein after heating vs DMSO (PISA); higher = thermal stabilisation; K562 cells, 10 uM, 30 min; active = over 0.2 and 3.5 SD of the protein, either way, in both replicates (recomputed). In outline:
(§1)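 Values are thermal stability changes relative to control samples and are taken from duplicates. They are stated as log2 fold changes. Before quantification by TMTpro 16plex LC-MS/MS with equalised channel sums, K562 cells at 2×10^6 cells/mL were treated with 10 μM compound for 30 min, heated in aliquots for 3 min across 48°C-58°C, pooled, extracted in PBS with 0.5% NP-40 at 4°C, and centrifuged at 21,000xg for 90 min to give the soluble supernatant.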
On to HSPH1 (UniProt Q92598), for which the log2 fold change is inactive: -0.053.

Regarding HSPA8 (UniProt E9PK54), the log2 fold change is inactive: 0.096.

As for HNRNPK isoform 2 (UniProt P61978), the log2 fold change is inactive: -0.03.

Consider HMGN5 (UniProt P82970), for which the log2 fold change was inactive: -0.026.

Turning to HIST2H2BF isoform 2 (UniProt Q5QNW6), the log2 fold change is inactive: 0.211.

Take HSP90AB1 (UniProt P08238): the log2 fold change is inactive: 0.005.

Consider HTRA2 (UniProt O43464), for which the log2 fold change is inactive: -0.087.

HSPB11 (UniProt Q9Y547): the log2 fold change was inactive: 0.02.

With HNRNPH3 (UniProt P31942), the log2 fold change was inactive: 0.052.

Turning to HMGB1 (UniProt P09429), the log2 fold change is inactive: -0.007.

As for HMGCL (UniProt P35914), the log2 fold change is inactive: -0.045.

Take HMGB3 (UniProt O15347): the log2 fold change was inactive: -0.057.

With HMGN1 (UniProt P05114), the log2 fold change is inactive: -0.014.

As for HTATSF1 (UniProt O43719), the log2 fold change is inactive: 0.024.

Turning to HSP90B1 (UniProt P14625), the log2 fold change is inactive: -0.041.

For HP1BP3 (UniProt Q5SSJ5), the log2 fold change was inactive: 0.017.

For IBTK (UniProt Q9P2D0), the log2 fold change is inactive: 0.165.

Regarding HOOK3 (UniProt Q86VS8), the log2 fold change was inactive: -0.047.

Turning to HNRNPM (UniProt P52272), the log2 fold change was inactive: 0.14.

With HIRIP3 (UniProt Q9BW71), the log2 fold change is inactive: -0.084.

On to HUS1 (UniProt O60921), for which the log2 fold change was inactive: -0.001.

For IDE (UniProt P14735), the log2 fold change was inactive: 0.011.

HNRNPUL1 (UniProt Q9BUJ2): the log2 fold change was inactive: -0.011.

Take HNRNPH1 (UniProt P31943): the log2 fold change was inactive: 0.004.

With HIP1 (UniProt O00291), the log2 fold change was inactive: -0.079.

In the case of HINT1 (UniProt P49773), the log2 fold change was inactive: -0.006.

For HSPBP1 isoform 3 (UniProt Q9NZL4), the log2 fold change was inactive: -0.023.

For the target HYOU1 (UniProt Q9Y4L1), the log2 fold change was inactive: 0.039.

Take HTATIP2 isoform 3 (UniProt Q9BUP3): the log2 fold change was inactive: -0.143.

In the case of HK2 (UniProt P52789), the log2 fold change is inactive: -0.215.

In the case of HSPA1A (UniProt P0DMV8), the log2 fold change is inactive: -0.001.

As to HMCN1 (UniProt Q96RW7), the log2 fold change was inactive: -0.149.

Compound in the next experiment: Cc1cccc(CC(=O)N2CCc3c2ccc(-c2cn(C)c4ncnc(N)c24)c3F)n1
The description is as above. In outline:
as §1
Regarding HSPH1 (UniProt Q92598), the log2 fold change was inactive: 0.018.

In the case of HSPA8 (UniProt E9PK54), the log2 fold change is inactive: -0.069.

HNRNPK isoform 2 (UniProt P61978): the log2 fold change was inactive: 0.007.

Regarding HMGN5 (UniProt P82970), the log2 fold change was inactive: -0.026.

Turning to HIST2H2BF isoform 2 (UniProt Q5QNW6), the log2 fold change is inactive: -0.189.

As to HSP90AB1 (UniProt P08238), the log2 fold change is inactive: 0.12.

Consider HTRA2 (UniProt O43464), for which the log2 fold change was inactive: -0.036.

Take HSPB11 (UniProt Q9Y547): the log2 fold change was inactive: 0.004.

Regarding HNRNPH3 (UniProt P31942), the log2 fold change was inactive: -0.081.

Take HMGB1 (UniProt P09429): the log2 fold change was inactive: -0.106.

On to HMGCL (UniProt P35914), for which the log2 fold change is inactive: 0.042.

Consider HMGB3 (UniProt O15347), for which the log2 fold change is inactive: -0.009.

For the target HMGN1 (UniProt P05114), the log2 fold change was inactive: -0.012.

As for HTATSF1 (UniProt O43719), the log2 fold change was inactive: -0.012.

Regarding HSP90B1 (UniProt P14625), the log2 fold change is inactive: -0.02.

As for HP1BP3 (UniProt Q5SSJ5), the log2 fold change is inactive: -0.082.

IBTK (UniProt Q9P2D0): the log2 fold change is inactive: 0.081.

For the target HOOK3 (UniProt Q86VS8), the log2 fold change is inactive: 0.029.

As for HNRNPM (UniProt P52272), the log2 fold change was inactive: -0.057.

On to HIRIP3 (UniProt Q9BW71), for which the log2 fold change was inactive: 0.013.

For the target HUS1 (UniProt O60921), the log2 fold change is inactive: -0.018.

Take IDE (UniProt P14735): the log2 fold change was inactive: 0.014.

Regarding HNRNPUL1 (UniProt Q9BUJ2), the log2 fold change is inactive: -0.069.

Take HNRNPH1 (UniProt P31943): the log2 fold change is inactive: 0.037.

Turning to HIP1 (UniProt O00291), the log2 fold change was inactive: -0.069.

Turning to HINT1 (UniProt P49773), the log2 fold change is inactive: 0.007.

For HSPBP1 isoform 3 (UniProt Q9NZL4), the log2 fold change is inactive: -0.009.

As to HYOU1 (UniProt Q9Y4L1), the log2 fold change is inactive: 0.

On to HTATIP2 isoform 3 (UniProt Q9BUP3), for which the log2 fold change is inactive: -0.016.

As to HK2 (UniProt P52789), the log2 fold change is inactive: 0.029.

As to HSPA1A (UniProt P0DMV8), the log2 fold change was inactive: -0.086.

HMCN1 (UniProt Q96RW7): the log2 fold change is inactive: 0.223.

Compound in another experiment: Cc1cn(-c2cc(NC(=O)c3ccc(C)c(Nc4nccc(-c5cccnc5)n4)c3)cc(C(F)(F)F)c2)cn1 [nilotinib]
Described as above. In outline: as §1
In the case of HSPH1 (UniProt Q92598), the log2 fold change was inactive: -0.041.

With HSPA8 (UniProt E9PK54), the log2 fold change is inactive: -0.105.

HNRNPK isoform 2 (UniProt P61978): the log2 fold change was inactive: -0.084.

In the case of HMGN5 (UniProt P82970), the log2 fold change was inactive: 0.057.

On to HIST2H2BF isoform 2 (UniProt Q5QNW6), for which the log2 fold change is inactive: -0.044.

Turning to HSP90AB1 (UniProt P08238), the log2 fold change is inactive: 0.109.

Take HTRA2 (UniProt O43464): the log2 fold change is inactive: -0.027.

For HSPB11 (UniProt Q9Y547), the log2 fold change is inactive: -0.003.

Take HNRNPH3 (UniProt P31942): the log2 fold change is inactive: 0.024.

HMGB1 (UniProt P09429): the log2 fold change was inactive: 0.065.

As for HMGCL (UniProt P35914), the log2 fold change was inactive: -0.004.

As to HMGB3 (UniProt O15347), the log2 fold change is inactive: 0.051.

Regarding HMGN1 (UniProt P05114), the log2 fold change was inactive: -0.022.

With HTATSF1 (UniProt O43719), the log2 fold change is inactive: -0.109.

Take HSP90B1 (UniProt P14625): the log2 fold change was inactive: -0.071.

In the case of HP1BP3 (UniProt Q5SSJ5), the log2 fold change was inactive: 0.055.

As to IBTK (UniProt Q9P2D0), the log2 fold change was inactive: -0.007.

Turning to HOOK3 (UniProt Q86VS8), the log2 fold change is inactive: -0.088.

For the target HNRNPM (UniProt P52272), the log2 fold change was inactive: -0.017.

Consider HIRIP3 (UniProt Q9BW71), for which the log2 fold change is inactive: 0.009.

As to HUS1 (UniProt O60921), the log2 fold change is inactive: 0.007.

As to IDE (UniProt P14735), the log2 fold change was inactive: -0.017.

Regarding HNRNPUL1 (UniProt Q9BUJ2), the log2 fold change is inactive: -0.032.

Take HNRNPH1 (UniProt P31943): the log2 fold change was inactive: -0.141.

Take HIP1 (UniProt O00291): the log2 fold change was inactive: -0.038.

Turning to HINT1 (UniProt P49773), the log2 fold change was inactive: 0.091.

For the target HSPBP1 isoform 3 (UniProt Q9NZL4), the log2 fold change was inactive: -0.083.

Take HYOU1 (UniProt Q9Y4L1): the log2 fold change is inactive: -0.028.

With HTATIP2 isoform 3 (UniProt Q9BUP3), the log2 fold change was inactive: 0.116.

With HK2 (UniProt P52789), the log2 fold change was active: -0.967.

In the case of HSPA1A (UniProt P0DMV8), the log2 fold change is inactive: 0.09.

Consider HMCN1 (UniProt Q96RW7), for which the log2 fold change is inactive: -0.036.
